In the supplement of paper PMC8728848:
This is one part of the list.

Columns and labels:
Assay in all cases: glycan array binding signal (z-score within array); higher = stronger binding
Settings in all cases: glycan notation: IUPAC condensed, linker removed
[1] = target: Gal(b1-4)GlcNAc(b1-3)Gal(b1-4)GlcNAc(b1-6)[Gal(b1-3)]GalNAc
Outline: (§1)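 Arrays were curated from the Consortium for Functional Glycomics database, 3228 in total, and kept only where the protein sequence was available. Binding is expressed as a within-array Z-score. This score was averaged across arrays of the same protein sequence at different concentrations or buffers and across linkers, and negative values can be read as non-binding.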

[2] = target: Gal(b1-4)GlcNAc(b1-3)Gal(b1-4)[Fuc(a1-3)]GlcNAc(b1-3)Gal(b1-4)[Fuc(a1-3)]GlcNAc
Outline: as §1

[3] = target: Gal(b1-4)GlcNAc(b1-3)GalNAc
Outline: as §1

[4] = target: Gal(b1-4)GlcNAc(b1-3)[Fuc(a1-3)GlcNAc(b1-6)]Gal(b1-4)Glc
Outline: as §1

[5] = target: Gal(b1-4)GlcNAc(b1-3)[Gal(b1-4)GlcNAc(b1-6)]Gal(b1-4)GlcNAc
Outline: as §1

[6] = target: Gal(b1-4)GlcNAc(b1-3)[GlcNAc(b1-6)]Gal(b1-4)GlcNAc
Outline: as §1

[7] = target: Gal(b1-4)GlcNAc(b1-6)Gal(b1-4)GlcNAc
Outline: as §1

[8] = target: Gal(b1-4)GlcNAc(b1-6)GalNAc
Outline: as §1

[9] = target: Gal(b1-4)GlcNAc(b1-6)[Gal(b1-3)]GalNAc
Outline: as §1

[10] = target: Gal(b1-4)GlcNAc(b1-6)[Gal(b1-4)GlcNAc(b1-3)]GalNAc
Outline: as §1

Gal(b1-4)GlcNAc6P = target: Gal(b1-4)GlcNAc6P
Outline: as §1

Gal(b1-6)Gal = target: Gal(b1-6)Gal
Outline: as §1

Gal3S(b1-3)GalNAc = target: Gal3S(b1-3)GalNAc
Outline: as §1

Gal3S(b1-3)GlcNAc = target: Gal3S(b1-3)GlcNAc
Outline: as §1

[11] = target: Gal3S(b1-3)[Fuc(a1-4)]GlcNAc
Outline: as §1

Gal3S(b1-4)Glc = target: Gal3S(b1-4)Glc
Outline: as §1

Gal3S(b1-4)Glc6S = target: Gal3S(b1-4)Glc6S
Outline: as §1

Gal3S(b1-4)GlcNAc = target: Gal3S(b1-4)GlcNAc
Outline: as §1

[12] = target: Gal3S(b1-4)[Fuc(a1-3)]Glc6S
Outline: as §1

[13] = target: Gal3S(b1-4)[Fuc(a1-3)]GlcNAc
Outline: as §1

[14] = target: Gal3S(b1-4)[Fuc(a1-3)]GlcNAc6S
Outline: as §1

Gal3S4S(b1-4)GlcNAc = target: Gal3S4S(b1-4)GlcNAc
Outline: as §1

Gal3S6S(b1-4)GlcNAc = target: Gal3S6S(b1-4)GlcNAc
Outline: as §1

Gal3S6S(b1-4)GlcNAc6S = target: Gal3S6S(b1-4)GlcNAc6S
Outline: as §1

Gal4S(b1-4)GlcNAc = target: Gal4S(b1-4)GlcNAc
Outline: as §1

Gal4S6S(b1-4)GlcNAc = target: Gal4S6S(b1-4)GlcNAc
Outline: as §1

Gal6P(b1-4)GlcNAc = target: Gal6P(b1-4)GlcNAc
Outline: as §1

Gal6S(b1-3)GlcNAc = target: Gal6S(b1-3)GlcNAc
Outline: as §1

Gal6S(b1-3)GlcNAc6S = target: Gal6S(b1-3)GlcNAc6S
Outline: as §1

Gal6S(b1-4)Glc = target: Gal6S(b1-4)Glc
Outline: as §1

Gal6S(b1-4)Glc6S = target: Gal6S(b1-4)Glc6S
Outline: as §1

Gal6S(b1-4)GlcNAc = target: Gal6S(b1-4)GlcNAc
Outline: as §1

Gal6S(b1-4)GlcNAc6S = target: Gal6S(b1-4)GlcNAc6S
Outline: as §1

GalNAc(a1-3)Gal = target: GalNAc(a1-3)Gal
Outline: as §1

GalNAc(a1-3)GalNAc = target: GalNAc(a1-3)GalNAc
Outline: as §1

[15] = target: GalNAc(a1-3)GalNAc(b1-3)Gal(a1-4)Gal(b1-4)Glc
Outline: as §1

[16] = target: GalNAc(a1-3)GalNAc(b1-3)Gal(a1-4)Gal(b1-4)GlcNAc
Outline: as §1

GalNAc(b1-3)Gal = target: GalNAc(b1-3)Gal
Outline: as §1

[17] = target: GalNAc(b1-3)Gal(a1-4)Gal(b1-4)GlcNAc
Outline: as §1

[18] = target: GalNAc(b1-3)Gal(a1-4)Gal(b1-4)GlcNAc(b1-3)Gal(b1-4)Glc
Outline: as §1

[19] = target: GalNAc(b1-3)Gal(a1-6)Gal(b1-4)Glc
Outline: as §1

GalNAc(b1-3)GalNAc = target: GalNAc(b1-3)GalNAc
Outline: as §1

GalNAc(b1-3)GlcNAc = target: GalNAc(b1-3)GlcNAc
Outline: as §1

GalNAc(b1-4)Gal(b1-4)Glc = target: GalNAc(b1-4)Gal(b1-4)Glc
Outline: as §1

GalNAc(b1-4)GlcNAc = target: GalNAc(b1-4)GlcNAc
Outline: as §1

B1: pilr alpha (protein)
chain: MLYGVTQPKHLSASMGGSVEIPFSFYYPWELATAPDVRISWRRGHFHRQSFYSTRPPSIHKDYVNRLFLNWTEGQKSGFLRISNLQKQDQSVYFCRVELDTRSSGRQQWQSIEGTKLSIT
- glycan array binding signal (z-score) [1]: 0.013
- glycan array binding signal (z-score) [2]: 0.352
- glycan array binding signal (z-score) [3]: -0.014
- glycan array binding signal (z-score) [4]: -0.533
- glycan array binding signal (z-score) [5]: -0.099
- glycan array binding signal (z-score) [6]: -0.059
- glycan array binding signal (z-score) [7]: -0.538
- glycan array binding signal (z-score) [8]: 0.367
- glycan array binding signal (z-score) [9]: -0.204
- glycan array binding signal (z-score) [10]: 0.5
- glycan array binding signal (z-score) (Gal(b1-4)GlcNAc6P): -0.424
- glycan array binding signal (z-score) (Gal(b1-6)Gal): -0.56
- glycan array binding signal (z-score) (Gal3S(b1-3)GalNAc): -0.408
- glycan array binding signal (z-score) (Gal3S(b1-3)GlcNAc): -0.224
- glycan array binding signal (z-score) [11]: 0.119
- glycan array binding signal (z-score) (Gal3S(b1-4)Glc): 0.738
- glycan array binding signal (z-score) (Gal3S(b1-4)Glc6S): -0.075
- glycan array binding signal (z-score) (Gal3S(b1-4)GlcNAc): -0.09
- glycan array binding signal (z-score) [12]: 1.22
- glycan array binding signal (z-score) [13]: -0.482
- glycan array binding signal (z-score) [14]: 0.259
- glycan array binding signal (z-score) (Gal3S4S(b1-4)GlcNAc): -0.588
- glycan array binding signal (z-score) (Gal3S6S(b1-4)GlcNAc): -0.574
- glycan array binding signal (z-score) (Gal3S6S(b1-4)GlcNAc6S): 1.52
- glycan array binding signal (z-score) (Gal4S(b1-4)GlcNAc): -0.097
- glycan array binding signal (z-score) (Gal4S6S(b1-4)GlcNAc): 0.664
- glycan array binding signal (z-score) (Gal6P(b1-4)GlcNAc): -0.402
- glycan array binding signal (z-score) (Gal6S(b1-3)GlcNAc): -0.425
- glycan array binding signal (z-score) (Gal6S(b1-3)GlcNAc6S): -0.05
- glycan array binding signal (z-score) (Gal6S(b1-4)Glc): 0.108
- glycan array binding signal (z-score) (Gal6S(b1-4)Glc6S): -0.56
- glycan array binding signal (z-score) (Gal6S(b1-4)GlcNAc): 0.649
- glycan array binding signal (z-score) (Gal6S(b1-4)GlcNAc6S): -0.583
- glycan array binding signal (z-score) (GalNAc(a1-3)Gal): 0.654
- glycan array binding signal (z-score) (GalNAc(a1-3)GalNAc): -0.176
- glycan array binding signal (z-score) [15]: -0.201
- glycan array binding signal (z-score) [16]: -0.443
- glycan array binding signal (z-score) (GalNAc(b1-3)Gal): -0.373
- glycan array binding signal (z-score) [17]: 2.72
- glycan array binding signal (z-score) [18]: -0.895
- glycan array binding signal (z-score) [19]: -0.342
- glycan array binding signal (z-score) (GalNAc(b1-3)GalNAc): 0.066
- glycan array binding signal (z-score) (GalNAc(b1-3)GlcNAc): -0.236
- glycan array binding signal (z-score) (GalNAc(b1-4)Gal(b1-4)Glc): -0.226
- glycan array binding signal (z-score) (GalNAc(b1-4)GlcNAc): 8.03
